In PubChem BioAssay AID504834 (National Center for Advancing Translational Sciences (NCATS), 2011):
The campaign covered roughly 320,000 compounds. About 22,000 (6.9%) were called active. This list was built around the results that the source calls inconclusive (neither active nor inactive); the mix of calls is not that of the screen. The call rests on the fitted dose curve; in most records, active means well fitted inhibition curve with a large enough effect; inconclusive means small, poorly fitted or top-dose-only effect, or another doubt; inactive means no such curve, though single readings can be large or run the other way. Where the call is inconclusive, the potency comes from a doubtful curve fit. More than one record can exist for a structure, and the calls need not agree.

assay: Primary qHTS for delayed death inhibitors of the malarial parasite plastid, 96 hour incubation; details: P. falciparum luciferase reporter growth; series mostly up to 28.7 µM
Outline: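 Infected RBCs, 2% Hct / 0.05% parasitemia final; luciferase-reporter P. falciparum; cpd 96 h, 37 C, 5% CO2; luciferase detection reagent; luminescence.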
Potency means the concentration at half of the fitted maximal effect.

SMILES | Potency
O=C(O)c1cccc2c1C(=O)c1cccc3snc-2c13 | inactive
OCCC1CN(Cc2ccc3c(c2)CCO3)CCN1Cc1ccc(F)cc1 (stereo not given) | inconclusive: 18.5 µM [inhibitor, single point]
CN1CCCN(C(=O)c2cccc(Br)c2)CC1 | inconclusive: 13.1 µM [inhibitor, single point]
Cc1sc(NC(=O)Nc2ccccc2)c(C(N)=O)c1C | inactive
CCC(C)N1Cc2ccccc2C1=N (stereo not given) | inconclusive: 4.15 µM [inhibitor, full curve]
O=C(COc1ccc([N+](=O)[O-])cc1)Nc1ccccc1N1CCCC1 | inactive
COc1ccc(N2CCN(CCCNC(=O)C(=O)c3c(C)n(C)c4ccccc34)CC2)cc1 | active: 14.7 µM
OC1/C(=C/c2ccc(Cl)cc2Cl)N2CCC1CC2 (stereo not given) | inconclusive: 0.738 µM [inhibitor, partial curve]
COc1ccc(CCNCC(O)COc2ccc(Cl)cc2)cc1OC (stereo not given) | inconclusive: 18.5 µM [inhibitor, single point]
O=S1(=O)CCN(OCc2ccc(Cl)cc2)CC1 | inactive
CC(=O)N1CCN(C(=O)CC2OC(=O)c3ccccc32)CC1 (stereo not given) | inconclusive: 0.147 µM [inhibitor, full curve]
CSCC[C@H](NC(=O)C(C)Oc1ccc(Cl)cc1)c1nc2ccccc2[nH]1 (stereo not given in full) | active: 6.57 µM
CCOc1ccc(-c2[nH]ncc2Oc2ccccc2OCC)c(O)c1 | inconclusive: 11.7 µM [inhibitor, partial curve, poor fit]
Cn1c(=O)c2nc3ccccc3nc2n(C)c1=O | inconclusive: 11.7 µM [inhibitor, partial curve, poor fit]
COc1ccc(Cn2nnnc2CN2CCOCC2)cc1 | active: 13.1 µM
C[C@H]1O[C@@H](O[C@H]2[C@@H](O)C[C@H](O[C@H]3[C@@H](O)C[C@H](O[C@H]4CC[C@@]5(C)[C@H](CC[C@@H]6[C@@H]5C[C@@H](O)[C@]5(C)[C@@H](C7=CC(=O)OC7)CC[C@]65O)C4)O[C@@H]3C)O[C@@H]2C)C[C@H](O)[C@@H]1O | active: 7.57 µM
CCOC(=O)C1CCN(C(=O)Nc2ccc(OCc3ccccc3)cc2)CC1 | inconclusive: 4.15 µM [inhibitor, partial curve, poor fit]
Cc1ccsc1/C=N/NC(=O)c1ccc(Cn2cc(Br)cn2)o1 | inconclusive: 11.7 µM [inhibitor, single point]
O=C(Nc1ccc([N+](=O)[O-])cc1)c1ccc(S(=O)(=O)N2CCCC2)cc1 | active: 11.7 µM
Cc1ccc(NC(=O)C2CCCN(C3=NS(=O)(=O)c4ccccc43)C2)c(O)c1 (stereo not given) | active: 14.7 µM

3 compounds from above, sorted by length of the SMILES, falling.
SMILES | Potency
O=C(Nc1ccc([N+](=O)[O-])cc1)c1ccc(S(=O)(=O)N2CCCC2)cc1 | active: 11.7 µM
CCOC(=O)C1CCN(C(=O)Nc2ccc(OCc3ccccc3)cc2)CC1 | inconclusive: 4.15 µM [inhibitor, partial curve, poor fit]
CCOc1ccc(-c2[nH]ncc2Oc2ccccc2OCC)c(O)c1 | inconclusive: 11.7 µM [inhibitor, partial curve, poor fit]
